{"source": "paper PMC6302136", "about": "“Quantitative Chemotherapeutic Profiling of Gynecologic Cancer Cell Lines Using Approved Drugs and Bioactive Compounds^” (Translational Oncology, 2018)"}
{"tested_on": "HEK 293T cells", "conditions": "this screen, qHTS curve class"}
{"smiles": "O=C(CCCCCCC(=O)Nc1ccccc1)NO", "note": "[Vorinostat]", "Curve Class (HEK 293T toxicity)": "−1.93"}
{"smiles": "COc1ccc(-c2ccc3ncc4c(c3c2)n(-c2ccc(N3CCNCC3)c(C(F)(F)F)c2)c(=O)n4C)cn1", "note": "[NVP-BGT226]", "Curve Class (HEK 293T toxicity)": "−1.1"}
{"smiles": "Cc1csc(NC(=O)CSc2nc3c(c(C(F)(F)F)c2C#N)CCC3)n1", "note": "[Irestatin 9389]", "Curve Class (HEK 293T toxicity)": "−1.1"}
{"smiles": "Cc1[nH]c2ccccc2c1CCNCc1ccc(/C=C/C(=O)NO)cc1", "note": "[Panobinostat]", "Curve Class (HEK 293T toxicity)": "−1.17"}
{"smiles": "COc1cc(N2CCC(N3CCN(C)CC3)CC2)ccc1Nc1ncc(Cl)c(Nc2ccccc2S(=O)(=O)C(C)C)n1", "note": "[NVP-TAE684]", "Curve Class (HEK 293T toxicity)": "−2.1"}
{"smiles": "CCN(CC)Cc1ccc2cc(COC(=O)Nc3ccc(C(=O)NO)cc3)ccc2c1", "note": "[Givinostat]", "Curve Class (HEK 293T toxicity)": "−1.17"}
